What follows is the remainder of the data, with few or none of the hits. Activity calls are given as the source filed them. Rule as the data show it: active = hERG blockade below about -20% or above about 20%; inactive = in between.

Sequences of proteins named here, by UniProt entry; tags and fusion partners are left off. A change or cut given only in a name is not applied to a line headed by its entry.
UniProt Q12809: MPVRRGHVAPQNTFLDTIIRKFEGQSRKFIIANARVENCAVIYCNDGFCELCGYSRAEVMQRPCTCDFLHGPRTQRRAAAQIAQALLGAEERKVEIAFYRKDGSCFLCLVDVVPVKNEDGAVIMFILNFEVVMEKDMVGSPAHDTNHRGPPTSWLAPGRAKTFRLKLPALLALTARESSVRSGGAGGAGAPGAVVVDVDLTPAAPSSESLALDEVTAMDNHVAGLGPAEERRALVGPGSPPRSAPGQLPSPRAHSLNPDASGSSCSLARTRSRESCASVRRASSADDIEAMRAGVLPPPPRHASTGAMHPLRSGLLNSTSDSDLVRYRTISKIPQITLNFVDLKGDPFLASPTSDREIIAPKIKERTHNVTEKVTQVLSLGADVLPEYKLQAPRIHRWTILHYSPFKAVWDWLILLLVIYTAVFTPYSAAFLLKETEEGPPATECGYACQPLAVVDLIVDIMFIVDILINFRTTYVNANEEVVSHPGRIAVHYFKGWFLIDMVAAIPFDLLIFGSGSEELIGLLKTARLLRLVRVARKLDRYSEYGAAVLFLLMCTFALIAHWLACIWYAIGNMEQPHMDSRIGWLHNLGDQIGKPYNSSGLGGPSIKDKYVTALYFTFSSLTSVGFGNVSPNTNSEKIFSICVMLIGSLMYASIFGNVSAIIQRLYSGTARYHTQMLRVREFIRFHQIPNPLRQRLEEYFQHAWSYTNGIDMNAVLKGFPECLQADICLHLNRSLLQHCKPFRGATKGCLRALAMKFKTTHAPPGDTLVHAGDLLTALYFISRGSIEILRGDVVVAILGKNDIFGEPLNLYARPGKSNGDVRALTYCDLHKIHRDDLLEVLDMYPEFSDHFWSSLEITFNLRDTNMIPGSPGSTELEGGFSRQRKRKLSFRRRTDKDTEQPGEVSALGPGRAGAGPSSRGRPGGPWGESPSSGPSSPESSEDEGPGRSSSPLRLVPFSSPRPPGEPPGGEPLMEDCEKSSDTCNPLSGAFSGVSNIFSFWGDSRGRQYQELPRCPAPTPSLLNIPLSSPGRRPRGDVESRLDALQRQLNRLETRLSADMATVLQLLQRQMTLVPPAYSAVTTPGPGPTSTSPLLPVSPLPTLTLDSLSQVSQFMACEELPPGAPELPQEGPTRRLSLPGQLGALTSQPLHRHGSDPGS

The target of the assay is Voltage-gated inwardly rectifying potassium channel KCNH2 (Homo sapiens) (UniProt Q12809). The experiment in a line: KCNH2 potassium channel function modulators, cell-based (AID 376).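 Also: 0% = buffer alone and 100% = reference blocker.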 The conditions noted are these: hERG-expressing cells, channel activity single-concentration screen; concentration not given here.
Turning to `NCCCC(N)C(=O)O` (stereo not drawn), the hERG blockade was inactive: -9.77%.
Then `O=S(=O)(c1ccccc1)N1CCN(S(=O)(=O)c2ccccc2)c2ccccc21`, with inactive: 4.5%; and `O=C1c2cccc(O)c2C(=O)c2c(OC3OC(CO)C(O)C(O)C3O)cccc21` (stereo not drawn), with inactive: 11.3%.

The values are drawn from PubChem BioAssay AID376 (PDSP, 2006).
